Our source for the binding values is US20120121594A1 (published 2012).

The chains behind the UniProt entries cited, without tags or fusion partners. Where a name states a change or a piece, a line headed by the entry shows the natural chain unless it says otherwise.
UniProt P05231: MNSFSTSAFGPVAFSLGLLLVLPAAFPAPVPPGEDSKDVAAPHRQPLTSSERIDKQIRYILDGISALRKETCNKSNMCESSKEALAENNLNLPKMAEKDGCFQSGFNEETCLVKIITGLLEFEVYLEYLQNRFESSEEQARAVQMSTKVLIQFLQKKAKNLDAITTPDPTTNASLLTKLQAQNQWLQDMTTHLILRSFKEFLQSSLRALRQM

Results are given in words; binding and its absence hold for the method and conditions named. Some results given as binding are weak or reduced against the parent protein; the word gives no strength.

This experiment deals with Human IL-6 (human, UniProt P05231 30-212). Kind of experiment: Octet bio-layer interferometry, antibody captured on anti-human IgG1 Fc sensor. (In general: BLI is a label-free optical method that tracks binding on a fibre tip over time.)

B1: Ab7 (antibody, V domains shown)
VH: QSLEESGGRLVTPGTPLTLTCTASGFSLSNYYMTWVRQAPGKGLEWIGMIYGSDETAYANWAIGRFTISKTSTTVDLKMTSLTAADTATYFCARDDSSDWDAKFNLWGQGTLVTVSS
VL: AYDMTQTPASVSAAVGGTVTIKCQASQSINNELSWYQQKSGQRPKLLIYRASTLASGVSSRFKGSGSGTEFTLTISDLECADAATYYCQQGYSLRNIDNAFGGGTEVVVKR
In the case of B1, the binding result was “binds”.
